# According to PubChem BioAssay AID602441 (National Center for Advancing Translational Sciences (NCATS), 2012):
# Among all 1,300 compounds or so, fewer than 10 were called active. Inconclusive results (about 9%) are left out. Calls come from the whole dose curve; as a rule, active = well fitted curve in the direction sought with a large enough effect; inconclusive = small, poorly fitted or top-dose-only effect, or another doubt; inactive = no such curve, though single readings can be large or run the other way. Some of the results follow.
# Assay: qHTS for antagonists of the Thyroid Stimulation Hormone Receptor: Hit Validation in Parental Cell Line; note: 0% is about no effect
# Details: parental HEK293 cells lacking TSHR, counter-screen; series mostly up to 56.9 µM; activity change, negative = inhibition: at the top concentration
# Summary of the method: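 Counterscreen in untransfected parental HEK-EM 293 cells. Lysate cAMP displaces cAMP-d2 from cryptate-tagged anti-cAMP antibody, and homogeneous TR-FRET is read at 665 nm with 337 nm excitation after stimulation.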
row,SMILES,"activity change, negative = inhibition"
1,Cc1nc2ccc(C(=O)Nc3ccc4nc[nH]c4c3)cc2[nH]1,inactive: 3.85%
2,COc1ccc(C(=O)c2ccccc2)c2c(O)ccc(C(=O)c3ccccc3)c12,inactive: -1.57%
3,COc1cccc(C(=O)Nc2ccc(-c3nc4ccccc4o3)c(O)c2)c1,inactive: -8.13%
4,CCN(Cc1ccccc1)c1ccc(/C=N/NC(=O)c2cccc(S(=O)(=O)N3CCOCC3)c2)cc1,inactive: 0.0222%
5,COc1ccc(C)cc1-n1nnnc1SCc1cc(=O)n2cc(C)ccc2n1,inactive: 0.702%
6,CCOc1ccccc1NC(=O)C(NCCc1ccc(OC)cc1)c1ccccc1 (centres undefined),inactive: 5.41%
7,Cc1cccc(NC(=O)c2ccc(Cl)c(S(=O)(=O)N3CCc4ccccc43)c2)n1,inactive: -4.04%
8,N#Cc1ccc(NC(=O)Nc2ccc(Cl)cc2)cc1,inactive: -9.56%
9,CN(C)c1ccc(NC(=S)c2ccc3ccccc3n2)cc1,inactive: 1.66%
10,CCCCOCCCNc1ncnc2c1[nH]c1ccccc12,inactive: -8.16%
11,Clc1cc(Cl)c(OCc2nc(-c3ccccn3)no2)cc1Cl,inactive: -4.07%
12,O=C(NC(Nc1nc2ccc([N+](=O)[O-])cc2s1)(C(F)(F)F)C(F)(F)F)c1cccnc1,inactive: -6.02%
13,C=CCNC(=O)c1ccc(NC(=O)C2=CSCCO2)cc1,inactive: 0.848%
14,COC(=O)c1ccc(COc2cc(O)c3c(c2)OC(C)(C)CC3=O)cc1,inactive: -0.0715%
15,O=C(CSc1nnc(NC(=O)c2cccc(Br)c2)s1)NCC1CCCO1 (centres undefined),inactive: -5.71%
16,O=C(OCCc1cc2ccccc2c(=O)o1)c1ccccc1C(F)(F)F,inactive: 1.43%
17,O=C(Nc1nc(-c2cccs2)cs1)c1cccc(S(=O)(=O)N2CCCCCC2)c1,inactive: -6.41%
18,CN(C)c1nc(=S)nc(NCc2ccccc2)[nH]1,inactive: 5.9%
19,COCC(=O)N1CCC(n2nccc2NC(=O)c2ccccc2OC)CC1,inactive: 2.84%
20,Nc1ncc(Br)cc1S(=O)(=O)Nc1cc(C(F)(F)F)cc(C(F)(F)F)c1,inactive: -4.31%
21,CCOc1ccc(N(CC(=O)NCc2ccc(F)cc2)C(=O)CCC(=O)Nc2nccs2)cc1,inactive: 2.09%
22,COc1ccc(CCNc2ncnc3sc(C)cc23)cc1OC,inactive: -0.71%
23,Cc1[nH]n(-c2ccccc2)c(=O)c1N=Nc1c(O)cc(S(=O)(=O)N(C)C)c2ccccc12,inactive: -9.58%
24,c1ccc2c(Cn3nnc4ccccc43)cccc2c1,inactive: 3.24%
25,COC(=O)c1ccc(C2N=C(c3cccs3)CC(c3ccccc3O)N2)cc1 (centres undefined),inactive: -5.29%
26,CCn1c(=O)c([N+](=O)[O-])c(Cl)c2ccccc21,inactive: -8.99%

row,SMILES,"activity change, negative = inhibition"
1,CCCC(=NC(C)CC)C1=C(O)CC(c2ccccc2)CC1=O (centres undefined),inactive: -2.01%
2,CC(=O)Nc1nc(C)c(Oc2ccc(C)cc2)c(=O)[nH]1,inactive: -1.89%
3,CC(=O)Oc1c(I)cc(I)cc1C(=O)Nc1ccc(Cl)cc1,inactive: -2.66%
4,O=C(N1CCN=C1SCc1cccnc1)C12CC3CC(CC(C3)C1)C2,inactive: 3.8%
5,C=C(C)C(=O)OCC(O)COc1ccc(C(C)(C)c2ccc(OCC(O)COC(=O)C(=C)C)cc2)cc1 (centres undefined),inactive: 2.1%
6,CC1CCc2nc(NC(=O)CSc3nc4ccccc4o3)sc2C1 (centres undefined),inactive: -5.03%
7,COc1ccc(Br)cc1/C=N/NC(=O)CN1CCCCC1,inactive: 1.49%
8,O=C1/C(=C\c2cc([N+](=O)[O-])ccc2O)SC(=S)N1Cc1ccc(Cl)cc1,inactive: -0.0111%
9,COC(=O)c1ccc(O)c(Sc2cc(C(=O)OC)ccc2O)c1,inactive: 5.3%
10,Cc1occc1-c1nnc(SCC(=O)Nc2nc(C(C)(C)C)cs2)o1,inactive: 0.133%
11,CCCCCCSc1nsc(NC(C)=O)n1,inactive: 0.688%
12,CCn1nnc2cc(C(=O)NCC(c3ccccc3OC)N(C)C)ccc21 (centres undefined),inactive: 0.997%
13,COc1ccc(NC(=O)c2ccc3ccccc3n2)cc1S(=O)(=O)Nc1ccccc1Cl,inactive: -0.701%
14,COC(=O)CN1C(=O)COc2ccc(S(=O)(=O)N3CCCC3)cc21,inactive: 6.27%
15,O=C(Nc1ncc(S(=O)(=O)c2ccc([N+](=O)[O-])cc2)s1)c1ccc2ccccc2c1,inactive: -5.81%
16,Cc1cc(C)c(S(=O)(=O)c2c(C)cccc2C)c(Cl)n1,inactive: -1.36%
17,COc1ccc(-n2nnnc2SCC(=O)NC2CCCC2)cc1OC,inactive: 5.81%
18,Cc1cc2cc(CCNC(=O)c3ccc(S(=O)(=O)N4CCCC4)cc3)c(=O)[nH]c2cc1C,inactive: -7.69%
19,O=C(Nc1ncc(S(=O)(=O)c2ccc([N+](=O)[O-])cc2)s1)c1ccccc1F,inactive: -5.75%
20,CN(Cc1ccco1)S(=O)(=O)c1nnc(NC(=O)c2cccc(Cl)c2)s1,inactive: -2.31%
21,CC(CNC(=O)c1cc(COc2ccc3ncccc3c2)on1)c1ccccc1 (centres undefined),inactive: -3.81%
22,COc1cnc(SCc2ccc(Cl)cc2Cl)nc1Cl,inactive: 2.29%
23,CN(c1cccc(NC(=O)c2ccc(Cl)c(S(=O)(=O)Nc3ccccc3)c2)c1)S(C)(=O)=O,inactive: -6.09%
24,O=c1cc(-c2ccccc2)nc2c(-c3ccccc3)c(C(F)(F)F)[nH]n12,inactive: -4.22%
25,Cc1ccc(C)c(N2CCN(C(=O)CCS(=O)(=O)c3ccc4c(c3)CCN4C(=O)C3CC3)CC2)c1,inactive: -6.03%
26,COc1ccccc1N1CCN(c2nc(C)nc3c2oc2ccccc23)CC1,inactive: -2.81%

row,SMILES,"activity change, negative = inhibition"
1,O=S(=O)(Nc1ccc(-c2ccc(N3CCOCC3)nn2)cc1)c1cc(Cl)ccc1Cl,inactive: -7.37%
2,CCc1ccc(-c2cc(C)no2)cc1S(=O)(=O)N1CCN(c2ccccn2)CC1,inactive: -3.09%
3,CN(C)c1ccc(NC(=O)Oc2ccccc2)cc1,inactive: 2.87%
4,Cc1cc(-n2c(C)cc(C(=O)CSc3[nH]c(=O)cc(C(F)(F)F)c3C#N)c2C)no1,inactive: 4.4%
5,O=C(Nc1ccc(Oc2ccc(Cl)cc2)c(Cl)c1)c1cc(I)cc(I)c1O,inactive: 0.502%
6,O=[N+]([O-])c1cc(Br)c(O)c(/C=N/Nc2nc3ccccc3s2)c1,inactive: -6.75%
7,CN1/C(=C/C(=O)c2nc(S(C)(=O)=O)ncc2Cl)C(C)(C)c2ccccc21,inactive: -7.95%
8,COc1cc(C(=O)NCCNC(=O)c2cnccn2)cc(OC)c1OC,inactive: 4.49%
9,Cc1[nH]n(C)c(=O)c1C(=O)c1c(-c2c(Cl)cccc2Cl)noc1C,inactive: -0.751%
10,COc1ccc(NS(=O)(=O)c2cccc(NC(=O)C3=NN(c4ccccc4)C(=O)CC3)c2)cc1,inactive: -3.01%
11,Cc1ccc(NC(=O)Cn2ncc3c([nH]c4ccccc43)c2=O)cc1Cl,inactive: 0.467%
12,COc1ccc2[nH]c3c(NCCC4=CCCCC4)ncnc3c2c1,inactive: -5.2%
13,COC(=O)Cn1c(=NC(=O)CSC(C)=O)sc2ccccc21,inactive: 0.922%
14,CC(C)C[C@H](N)c1nnc(S(=O)(=O)Cc2ccc(F)cc2)o1,inactive: -9.78%
15,Cc1ccccc1C(=O)N1CCN(c2ccc(NC(=O)CSc3ccc(Cl)cc3)cc2)CC1,inactive: -2.79%
16,O=C(CCC(=O)Nc1ccccc1)N/N=C/c1ccncc1,inactive: 2.38%
17,Cc1cccc(OCCCCc2c(C)n[nH]c2C)c1C,inactive: -0.678%
18,COc1ccccc1N1C(=O)c2cccc3c(Cl)ccc(c23)C1=O,inactive: 1.83%
19,O=C(c1cccs1)c1ccc(-c2cccs2)s1,inactive: -0.0059%
20,CC(C)S(=O)(=O)C1=NSC2=NC(=O)/C(=C\c3ccc(-c4ccccc4)o3)C(=N)N21,inactive: -7.22%
21,O=C(Nc1nnc(SCc2ccc(Cl)cc2Cl)s1)C1COc2ccccc2O1 (centres undefined),inactive: 3.2%
22,O=C(CSc1ccc2nnc(CCNC(=O)c3ccccc3)n2n1)NCc1ccc(F)cc1,inactive: 5.77%
23,C1=C(CCNc2ncnc3c2[nH]c2ccccc23)CCCC1,inactive: -5.54%
24,COC(=O)c1ccc(NC(=O)c2nc(S(=O)(=O)Cc3cccc(C)c3)ncc2Cl)cc1,inactive: 5.51%
25,O=C(CSc1n[nH]c(=O)n1C1CC1)c1ccc2c(c1)OCCO2,inactive: -0.511%
26,CN(Cc1ccco1)S(=O)(=O)c1csc(C(N)=O)c1,inactive: 3.14%

row,SMILES,"activity change, negative = inhibition"
1,COc1cccc(C(=O)Nc2ccc(NC(=O)C3CCCCC3)nc2)c1,inactive: -5.39%
2,Cc1cccc(OCC(=O)Nc2nc3ccc([N+](=O)[O-])cc3s2)c1C,inactive: 3.08%
3,CCSc1ccc(C(=O)Nc2ccc(Br)cn2)cc1[N+](=O)[O-],inactive: -5.48%
4,Cc1ccc(C2=NS(=O)(=O)N(C)C(C(=O)NCc3ccc(F)cc3)=C2)cc1,inactive: 2.08%
5,Cc1ccc(NC(=O)Nc2ccc3c(c2)OCO3)c(OC(F)F)c1,inactive: 3.98%
6,CC1CCN(S(=O)(=O)c2nnc(NC(=O)c3cccc([N+](=O)[O-])c3)s2)CC1,inactive: -6.2%
7,CCOc1ccc2nc(NC(=O)c3ccc(OCC4CCCO4)cc3)sc2c1 (centres undefined),inactive: -9.31%
8,COc1ccc(N2CCN(c3ncnc4sc(C(=O)NCC5CCCO5)c(C)c34)CC2)cc1 (centres undefined),inactive: -0.502%
9,CCOc1ccc(C2NC(=O)c3ccccc3O2)cc1OC (centres undefined),inactive: 4.73%
10,COc1ccc(NS(=O)(=O)c2cn(C)cn2)cc1Cl,inactive: 1.63%
11,COc1ccc(-c2cn(CCCOCc3ccccc3)nn2)cc1,inactive: 0.0377%
12,CCC(C)NC(=O)CN1C(=O)CSc2ccc(S(=O)(=O)N3CCCC3)cc21 (centres undefined),inactive: 1.36%
13,COc1ccc(-c2sc3ccc(N4CCOCC4)cc3c2C#CCO)cc1,inactive: -3.71%
14,CCOc1ccc2nc(NC(=O)CS(=O)(=O)c3ccccc3)sc2c1,inactive: 2.78%
15,COc1ccc(S(=O)(=O)Nc2ccccc2C(=O)Nc2nc(-c3ccc(F)cc3)cs2)cc1OC,inactive: -6.89%
16,COc1ccc(NC(=O)/C(Cl)=C(/Cl)S(=O)(=O)Cc2ccccc2)cn1,inactive: -9.15%
17,COC(=O)c1c(NC(NC(C)=O)C(Cl)(Cl)Cl)sc2c1CCCC2 (centres undefined),inactive: -3.47%
18,O=c1[nH]cccc1-c1nc2ccccc2n1Cc1ccc(F)cc1,inactive: 0.801%
19,O=C(NC1CCCCC1)C(c1cccs1)N(Cc1cccs1)C(=O)c1cccs1 (centres undefined),inactive: -0.269%
20,CCCN1CCN(CCCNC(=O)Cn2nc(C)n3c(cc4cc(OC)ccc43)c2=O)CC1,inactive: -0.389%
21,COc1ccc(OC)c(NC(=O)c2cc(S(=O)(=O)NCc3ccco3)ccc2F)c1,inactive: 1.21%
22,Clc1ccc(CCNc2ncnc3nc[nH]c23)cc1,inactive: 1.2%
23,COc1cc([N+](=O)[O-])cc(/C=C2/SC(=S)N(Cc3ccccc3)C2=O)c1O,inactive: 0.0238%
24,CC1CN(C(=O)CCn2c(=O)oc3ccccc32)CC(C)O1 (centres undefined),inactive: 1.44%
25,Cc1ccc(CCNC(=O)CN2C(=O)COc3ccc(S(=O)(=O)N4CCC(C)CC4)cc32)cc1,inactive: 4.23%
26,CCn1c(Cl)c(C=O)s/c1=N\S(=O)(=O)c1ccccc1,inactive: -7.93%

# Entries from the list above containing a CF3 group:
row,SMILES,"activity change, negative = inhibition"
12,O=C(NC(Nc1nc2ccc([N+](=O)[O-])cc2s1)(C(F)(F)F)C(F)(F)F)c1cccnc1,inactive: -6.02%
16,O=C(OCCc1cc2ccccc2c(=O)o1)c1ccccc1C(F)(F)F,inactive: 1.43%
20,Nc1ncc(Br)cc1S(=O)(=O)Nc1cc(C(F)(F)F)cc(C(F)(F)F)c1,inactive: -4.31%
24,O=c1cc(-c2ccccc2)nc2c(-c3ccccc3)c(C(F)(F)F)[nH]n12,inactive: -4.22%
4,Cc1cc(-n2c(C)cc(C(=O)CSc3[nH]c(=O)cc(C(F)(F)F)c3C#N)c2C)no1,inactive: 4.4%
